Data taken from patent US20080167271A1, “PHARMACEUTICAL COMPOSITIONS COMPRISING A BISPHOSPHONATE COMPOUND” (Besins Healthcare SA, priority 2006, published 2008).

What was measured:
[1] = test system: human abdominal dermatomed skin; experiment: In vitro dermal absorption, Franz cell assay; type: in vitro ADME
[2] = rat, published data (Lin, Russel, Gertz 1999); cited from earlier work

With NCCCC(O)(P(=O)(O)O)P(=O)(O)O [alendronate, 4-amino-1-hydroxybutylidene-1,1-bisphosphonic acid] the “effect of glycerine on amount recovered in the receptor fluid and the dermis” value ([1]; FIGS. 12-13) was “neutral effect”, the “percutaneous absorption: recovery in the receptor fluid and the dermis” value ([1]; Franz cell, human skin, 24 hrs) was “does cross the skin” and the “effect of urea on amount recovered in the receptor fluid and dermis/skin” value ([1]; buffered solution vs 100% phosphate buffer, FIGS. 10-11) was “neutral effect”. For the same compound, the “effect of alcohol content on the percentage of absorption” value ([1]; ethanol/water versus pure aqueous compositions, FIG. 4) was “does not detrimentally affect”, the “in vitro absorption in rats versus humans” value ([1]; higher in rats than in humans) was 10 fold and the “absorption rate in vitro” value ([1]; human skin Franz cell, Example 2) was 0.6%. For the same compound, the “effect of menthol on amount recovered in the receptor fluid and dermis” value ([1]; menthol at 90% of saturating concentration in 90/10 phosphate buffer/ethanol vs phosphate buffer solution, FIGS. 6-7) was “does not increase”, the “effect of urea on amount recovered in the receptor fluid and dermis” value ([1]; urea in phosphate buffer solution, FIGS. 8-9) was “neutral effect” and the “effect of propylene glycol (PG) on amount recovered” value ([1]; vs 100% phosphate buffer solution, FIGS. 10-11) was “tends to reduce”. The “effect of the increase in alcohol content on absorption (percentage of the dose applied)” value ([1]; water/alcohol solutions, FIGS. 1-2) was “not significantly modified” and the “urinary recovery after IV administration” value [2] was 36%.
